Results taken from paper PMC7949165.

Target: Low-density lipoprotein receptor-related protein-1 (LRP1) (mouse (endogenous in liver))
Assay: co-IP; endogenous proteins of wild-type mouse liver lysate, precleared; antibodies against LRP1 or PIP5K1B cross-linked (BS3) to Protein-A Dynabeads, overnight at 4 °C, washed with PBS, eluted with 2X SDS buffer, western blot; nonspecific IgG as negative control

binding: binds
B1: phosphatidylinositol-4-phosphate 5-kinase-like 1 (PIP5KL1) (protein, UniProt Q6U7H8 1-395)
chain: MATPSLRSHEIPAHSQEAGNKSISSGSRRGLLWHLRARQSRVGLFEVGPGHELHRMTRMMQEGLWAATQVSKNNPPTGPTTQKDYLEVMTQVHEEGFELGTLAGPAFARLRKSIGLTEEDYQATLGPGDPYLQFFSTSKSKASFFLTHDQRFFVKTQRRHEVHVLLAHLPRYVEHLQQYPHSLLARLLGVYSLRVAQGKKKYFIIMQCIFYPTSRISERYDIKGCNISRWVDPAPEGSPLVLVLKDLNFQEKTMRLGAQRSWFLRQMELDTAFLREVNVLDYSLLVAIQFLHEDEKGIHHSVFSTFKSIQGVSKSKGTGDQNCRMLPDLPNALHILDGPDQRYFLGLVDMTTVYGFRKRLEHVWKMVRYPGQSVSTVSPAHYARRLCRWAEVHTE

These are yes or no findings as the source states them, for the method shown. In cells and extracts the contact can be indirect. Binding can be weak; no strength is given.
